One compound from the GenesisPotency data set can be followed below.

The structures appear in SMILES notation. Only a part is listed here, and it is no random draw. These assays gave more results; the selection is not random.

The target in the test is T1, Nuclear receptor subfamily 1 group I member 3, Homo sapiens (UniProt Q14994).
T1 sequence (whole entry): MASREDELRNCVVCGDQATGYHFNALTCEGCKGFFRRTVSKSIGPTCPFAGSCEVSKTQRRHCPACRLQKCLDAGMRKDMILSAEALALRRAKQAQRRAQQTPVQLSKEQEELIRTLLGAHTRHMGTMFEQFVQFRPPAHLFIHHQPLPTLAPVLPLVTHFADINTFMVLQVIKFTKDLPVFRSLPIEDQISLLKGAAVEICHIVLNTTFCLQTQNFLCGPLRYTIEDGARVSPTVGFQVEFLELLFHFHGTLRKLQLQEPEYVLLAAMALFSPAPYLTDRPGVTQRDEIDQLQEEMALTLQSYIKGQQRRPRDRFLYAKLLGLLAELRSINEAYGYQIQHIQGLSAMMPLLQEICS
Briefly: PubChem AID 1224893.
Consider `CC[N+]1(CCOC(=O)C(O)(c2ccccc2)c2ccccc2)CCCCC1.[Br-]`, for which the compound was called inactive.
